Drawing on publication PMC9788671, this text covers binding for six molecules.

By UniProt entry, the sequences of proteins in these tests, tags left out.
UniProt Q9NZV8: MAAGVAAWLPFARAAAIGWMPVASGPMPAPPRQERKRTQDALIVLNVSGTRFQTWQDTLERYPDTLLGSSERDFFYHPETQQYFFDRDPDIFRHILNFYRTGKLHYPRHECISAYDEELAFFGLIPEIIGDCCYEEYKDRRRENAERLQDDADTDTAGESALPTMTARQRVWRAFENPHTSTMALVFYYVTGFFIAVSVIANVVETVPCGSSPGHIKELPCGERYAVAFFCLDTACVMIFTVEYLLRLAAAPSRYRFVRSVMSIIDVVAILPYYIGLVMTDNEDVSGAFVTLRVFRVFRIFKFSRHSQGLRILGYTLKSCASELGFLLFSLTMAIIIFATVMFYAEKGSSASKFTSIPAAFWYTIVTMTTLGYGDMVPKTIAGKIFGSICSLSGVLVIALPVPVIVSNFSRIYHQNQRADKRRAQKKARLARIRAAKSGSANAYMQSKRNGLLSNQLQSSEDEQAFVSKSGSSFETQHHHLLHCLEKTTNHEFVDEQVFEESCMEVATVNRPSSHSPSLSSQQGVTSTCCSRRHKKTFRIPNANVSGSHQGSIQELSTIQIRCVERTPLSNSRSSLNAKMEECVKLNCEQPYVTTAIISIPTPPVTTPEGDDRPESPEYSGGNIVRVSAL

In experiment [1] the target is TAP-Kv4.2 (human) (UniProt Q9NZV8). The experiment is described as follows: affinity purification with mass spectrometry; TAP-Kv4.2 expressed by lentivirus in rat hippocampal neurons, harvested at DIV14; strong lysis buffer (1% Triton X-100, 0.5% deoxycholate in PBS, pH 7.4); streptavidin resin, then calmodulin resin; gel cut into high and low molecular weight fragments; no MS of the control sample.

For experiment [2] the target is unchanged. Nature of the experiment: affinity purification with mass spectrometry; TAP-Kv4.2 expressed by lentivirus in rat hippocampal neurons, harvested at DIV14; weak lysis buffer of the kit (0.1% NP-40); streptavidin resin, then calmodulin resin; gel cut into high and low molecular weight fragments; no MS of the control sample.

No constants are given. Whether binding was seen depends on the method and setting. Binding seen in cells or lysates may run through a third protein. Here binding means that the protein was enriched with, or labelled near, the bait; the list need not be complete.

B1: Slc25a5 (protein, UniProt Q09073 1-298)
chain: MTDAAVSFAKDFLAGGVAAAISKTAVAPIERVKLLLQVQHASKQITADKQYKGIIDCVVRIPKEQGVLSFWRGNLANVIRYFPTQALNFAFKDKYKQIFLGGVDKRTQFWRYFAGNLASGGAAGATSLCFVYPLDFARTRLAADVGKAGAEREFKGLGDCLVKIYKSDGIKGLYQGFNVSVQGIIIYRAAYFGIYDTAKGMLPDPKNTHIFISWMIAQSVTAVAGLTSYPFDTVRRRMMMQSGRKGTDIMYTGTLDCWRKIARDEGGKAFFKGAWSNVLRGMGGAFVLVLYDEIKKYT
As to B1, the binding entry in the experiment with TAP-Kv4.2 (human) [1] and with TAP-Kv4.2 (human) [2] was “binds” in each case.

B2: Bdh1 (protein, UniProt P29147 47-343)
chain: TSQADAASGKAVLVTGCDSGFGFSLAKHLHSKGFLVFAGCLLKDKGDAGVRELDSLKSDRLRTIQLNVCNSEEVEKAVETVRSGLKDPEKGMWGLVNNAGISTFGEVEFTSMETYKEVAEVNLWGTVRTTKSFLPLLRRAKGRVVNISSMLGRMANPARSPYCITKFGVEAFSDCLRYEMHPLGVKVSVVEPGNFIAATSLYSPERIQAIAKKMWDELPEVVRKDYGKKYFDEKIAKMETYCNSGSTDTSSVINAVTHALTAATPYTRYHPMDYYWWLRMQVMTHFPGAISDKIYIH
With B2, the binding result with TAP-Kv4.2 (human) [1] and with TAP-Kv4.2 (human) [2] was “binds” throughout.

B3: KChIP2 (protein, UniProt Q9JM59 1-270)
chain: MRGQGRKESLSESRDLDGSYDQLTGHPPGPSKKALKQRFLKLLPCCGPQALPSVSETLAAPASLRPHRPRPLDPDSVEDEFELSTVCHRPEGLEQLQEQTKFTRRELQVLYRGFKNECPSGIVNEENFKQIYSQFFPQGDSSNYATFLFNAFDTNHDGSVSFEDFVAGLSVILRGTIDDRLSWAFNLYDLNKDGCITKEEMLDIMKSIYDMMGKYTYPALREEAPREHVESFFQKMDRNKDGVVTIEEFIESCQQDENIMRSMQLFDNVI
As for B3, the binding result with TAP-Kv4.2 (human) [1] and with TAP-Kv4.2 (human) [2] was “binds” throughout.

B4: Stmn3 (protein, UniProt Q9JHU6 1-180)
chain: MASTVSAYKEKMKELSVLSLICSCFYSQPHPNTIYQYGDMEVKQLDKRASGQSFEVILKSPSDLSPESPVLSSPPKRKDASLEELQKRLEAAEERRKTQEAQVLKQLAERREHEREVLHKALEENNNFSPLAEEKLNYKMELSKEIREAHLAALRERLREKELHAAEVRRNKEQREEMSG
For B4, the binding entry with TAP-Kv4.2 (human) [1] and in the experiment with TAP-Kv4.2 (human) [2] was “binds” in each case.

B5: Kv4.3 (protein, UniProt Q62897 1-655)
chain: MAAGVAAWLPFARAAAIGWMPVANCPMPLAPADKNKRQDELIVLNVSGRRFQTWRTTLERYPDTLLGSTEKEFFFNEDTKEYFFDRDPEVFRCVLNFYRTGKLHYPRYECISAYDDELAFYGILPEIIGDCCYEEYKDRKRENAERLMDDNESENNQESMPSLSFRQTMWRAFENPHTSTLALVFYYVTGFFIAVSVITNVVETVPCGTVPGSKELPCGERYSVAFFCLDTACVMIFTVEYLLRLFAAPSRYRFIRSVMSIIDVVAIMPYYIGLVMTNNEDVSGAFVTLRVFRVFRIFKFSRHSQGLRILGYTLKSCASELGFLLFSLTMAIIIFATVMFYAEKGSSASKFTSIPASFWYTIVTMTTLGYGDMVPKTIAGKIFGSICSLSGVLVIALPVPVIVSNFSRIYHQNQRADKRRAQKKARLARIRVAKTGSSNAYLHSKRNGLLNEALELTGTPEEEHMGKTTSLIESQHHHLLHCLEKTTGLSYLVDDPLLSVRTSTIKNHEFIDEQMFEQNCMESSMQNYPSTRSPSLSSHSGLTTTCCSRRSKKTTHLPNSNLPATRLRSMQELSTIHIQGSEQPSLTTSRSSLNLKADDGLRPNCKTSQITTAIISIPTPPALTPEGESRPPPASPGPNTNIPSITSNVVKVSVL
Take B5: the binding entry with TAP-Kv4.2 (human) [1] and in the experiment with TAP-Kv4.2 (human) [2] was “binds” each time.

B6: Hsd17b12 (protein, UniProt Q6P7R8 1-312)
chain: MERALPAAGFLYWVGASTIAYLTLRASYSLFRAFQVWCVGNQAFVGPRLGEWAVVTGGTDGIGKSYAEELAKRGMKIVLISRSQDKLKEVSNNIKEKFNVETRTIAVDFSLDDIYDKIKTGLSGLEIGVLVNNVGMSYEYPEYFLEIPDLDNTIKKLININVLSICKVTRLVLPGMVERSKGVILNISSASGMLPVPLLTVYSATKAFVDFFSQCLHEEYKSKGIFVQSVLPFFVATKLAKIRKPTLDKPSAETFVKSAIKTVGLQTRTTGYVIHAIMGSINSILPRWIYFKTIMGFNKSLRNRYLKKTKKN
Regarding B6, the binding result with TAP-Kv4.2 (human) [1] and in the experiment with TAP-Kv4.2 (human) [2] was “binds” in each case.
